The results in this text go back to patent publication US20140004201A1, “Treatment of Vascular Diseases Using Encapsulated Cells Encoding and Secreting GLP-1, or a Fragment or Variant Thereof” (Biocompatibles UK Ltd., priority 2010, published 2014).

In this data set the test system is hTERT-MSC cells. Description: Expression level of active GLP in stably transfected hTERT-MSC cell clones. It counts as cell-based, human. To be noted: stably expressing hTERT-MSC cell clones.
As for “GLP1(7-37)-IP2-GLP1(7-37) [construct #217]”, the “active GLP per 10^6 cells and hour” value turned out to be 2.7 pmol.

For the substance GLP-1(7-37) [construct #103], the “active GLP per 10^6 cells and hour” value was found to be 0.4 pmol. As for “GLP-1(7-37)-IP2-extended with 11 AA [construct #317]”, the “active GLP per 10^6 cells and hour” value is 0.6 pmol.
